Our source for the AC50 values is PubChem BioAssay AID493014 (National Center for Advancing Translational Sciences (NCATS), 2011).

One may read the AC50 as the midpoint of the concentration-response curve, whichever way the signal moves.

This is one part of the list. Further columns of the screen follow, without active or inactive calls. Most of these compounds were active or inconclusive in the main read-out, so they are no random draw. The note in brackets gives the kind of curve behind each potency; many fits are weak.

This experiment can be described thus: qHTS Assay to Find Inhibitors of Chronic Active B-Cell Receptor Signaling. To be noted: ABC-DLBCL IkBa-CBG/CBR reporter, luminescence ratio (green luciferase fused to IkBa over red control in TMD8 lymphoma cells), 4 h. The method in brief: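 Concentration-response series (up to 46 uM) were applied to TMD8 dual-reporter cells for 4 h at 37C with doxycycline. Green/red ratio, after filter-overlap correction, defined %Activity; red signal alone was normalised to basal cells and zero luminescence.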

Setting [1] is: measured here: CBR red luminescence, cell number.
[2] abbreviates: measured here: IkBa-CBG green luminescence.

`Cc1ccc(NC(=O)CSc2nn3c(=O)c(C)nnc3s2)cc1Cl`: the AC50 under setting [1] was 3.98 µM [falling, full curve, poor fit].

With `CCN1C(=O)N/C(=C/c2ccc(Sc3ccc(C)cc3)o2)C1=O`, the AC50 under setting [1] was 1.78 µM [falling, partial curve].

On to `COc1cccc(NC(=O)CSc2nc3ccccc3c3nc4ccccc4n23)c1`, for which the AC50 under setting [1] is 0.0731 µM [falling, full curve].

Turning to `Cc1ccc2[nH]c(=O)c(CN(CCCN(C)C)C(=S)NCCc3ccccc3)cc2c1`, under setting [1], the half-maximal activity concentration (AC50) is 6.31 µM [falling, single point].

On to `Cc1ccc(-c2nnc(-c3ccc4c(c3)OCO4)o2)cc1`, for which the AC50 under setting [1] is 2.24 µM [rising, partial curve, poor fit].

With `CC(C)C(=O)Nc1ccc2c(c1)nc1n2CCSC1`, under setting [1], the half-maximal activity concentration (AC50) is 16.4 µM [rising, partial curve].

For `COc1cccc(C(=O)/C=C/c2ccc(OCC#N)c(OC)c2)c1`, under setting [1], the half-maximal activity concentration (AC50) is 4.61 µM [falling, full curve].

`S=C(NCCc1ccccc1)Nc1ccc(Br)cn1`: the AC50 under setting [1] was 8.91 µM [rising, partial curve, poor fit].

With `Cc1ccc(C2=NNC(c3cccc(F)c3)S2)cc1` (stereo not drawn), the concentration at half-maximal activity (AC50) under setting [1] was 5.62 µM [falling, full curve, poor fit].

Turning to `COc1ccc2nc3cc(Cl)ccc3c(Nc3cc(C(C)C)c(O)cc3C)c2c1`, the AC50 is, setting by setting: under setting [1], 20 µM [falling, single point]; under setting [2], 15.8 µM [rising, partial curve, poor fit].

For `C#CCOCCOCCOCCNc1nc(N2CCOCC2)nc(N2CCN(C(=O)CCCCCCCCCCNC(=O)[C@H]([C@@H](C)CC)n3cc(CCCCN=C(N)N)nn3)CC2)n1`, the AC50 under setting [1] is 7.31 µM [rising, partial curve, poor fit].

As to `Cc1ccc(NC(=O)c2cc(-c3cccs3)on2)cc1C`, the AC50 under setting [1] was 10 µM [falling, partial curve, poor fit].

Regarding `CCN(CC)C1CCN(C(=O)c2cc(COc3ccc(F)cc3Cl)on2)C1` (stereo not drawn), under setting [1], the AC50 is 12.6 µM [rising, partial curve, poor fit].

As to `COc1ccc(C(=O)NNC(=S)NC(=O)c2ccccc2)cc1`, under setting [1], the AC50 is 20 µM [rising, partial curve, poor fit].

Take `Cc1ccc(-c2nc3ccccc3[nH]2)cc1N`: the half-maximal activity concentration (AC50) under setting [1] is 14.6 µM [falling, partial curve, poor fit].

Consider `O=C(Nc1ccc(F)cc1)c1cccc(NC(=O)C2C3CC4OC(=O)C2C4C3)c1` (stereo not drawn), for which, under setting [1], the AC50 was 13 µM [falling, partial curve].

Take `Cc1cc(N)n(-c2ccc3ccccc3c2)n1`: the AC50 under setting [1] is 0.562 µM [rising, full curve, poor fit].

In the case of `CSc1ccc(-c2nc(CSCC(=O)NCCCN3CCCC3=O)c(C)o2)cc1`, the AC50 under setting [1] is 6.31 µM [falling, single point].

For `CCN(C[C@H]1N[C@@](Cc2ccccc2)(C(=O)OC)[C@H]2C(=O)N(Cc3ccccc3)C(=O)[C@@H]12)C(=O)Nc1ccc(F)cc1`, the concentration at half-maximal activity (AC50) under setting [1] was 29.1 µM [falling, single point].

Turning to `O=c1c2ccccc2nnn1Cc1ccccc1`, the half-maximal activity concentration (AC50) under setting [1] is 35.5 µM [falling, partial curve, poor fit].

With `CC(C)=CC(=O)Nc1nnc(C(C)C)s1`, the concentration at half-maximal activity (AC50) under setting [1] was 6.31 µM [rising, single point].

For `CC(C)(C)c1ccc(C(=O)N/N=C/c2ccccn2)cc1`, under setting [1], the AC50 is 22.4 µM [rising, single point].

Take `O=C(CS(=O)(=O)c1ccccc1)Nc1nnc(-c2cccs2)o1`: the half-maximal activity concentration (AC50) under setting [1] is 23.1 µM [falling, single point].

For `Cc1cnc(SCc2ccc(Cl)cc2Cl)[nH]c1=O`, the AC50 under setting [1] is 3.16 µM [rising, single point].

Consider `Cc1ccc2nc(N3CCN(C(=O)c4ccco4)CC3)c3nncn3c2c1`, for which, under setting [1], the concentration at half-maximal activity (AC50) was 0.501 µM [rising, full curve, poor fit].

For the compound `COCCN(C(=O)Cc1cccs1)C(C(=O)NCc1ccc(OC)cc1)c1ccc(C)cc1` (stereo not drawn), under setting [1], the half-maximal activity concentration (AC50) is 32.6 µM [falling, single point].

`Cc1ccc(-n2nc3ccc(NC(=O)/C=C/c4ccco4)cc3n2)cc1`: under setting [1], the AC50 is 23.1 µM [rising, partial curve, poor fit].

On to `CC(CC(=O)Nc1cc(C(F)(F)F)ccc1Cl)c1ccccc1` (stereo not drawn), for which, under setting [1], the concentration at half-maximal activity (AC50) was 6.31 µM [rising, full curve].

In the case of `O=C(CC(C(=O)N1CCc2ccccc21)n1ccnc1)NCc1cccnc1` (stereo not drawn), the half-maximal activity concentration (AC50) under setting [1] is 29.1 µM [rising, single point].

As to `NC(=O)CC1SC(N)=NC1=O` (stereo not drawn), the concentration at half-maximal activity (AC50) under setting [1] was 4.11 µM [falling, partial curve, poor fit].

With `COc1ccc(COCC(O)CN2CCC(C(N)=O)CC2)cc1OC` (stereo not drawn), under setting [1], the concentration at half-maximal activity (AC50) is 5.62 µM [rising, single point].

Consider `Cc1cc(-c2nc(C)c(C(=O)NN)s2)no1`, for which, under setting [1], the AC50 is 0.316 µM [falling, full curve, poor fit].

On to `c1ccc2[nH]c(NCCCN3CCOCC3)nc2c1`, for which the concentration at half-maximal activity (AC50) under setting [1] was 5.01 µM [rising, single point].

For the compound `Cc1ccsc1C(=O)OCC(=O)Nc1nnc(-c2ccccc2)o1`, the AC50 under setting [1] was 18.4 µM [falling, single point].

Turning to `CN(C)C(=O)N1CCNCC1`, the half-maximal activity concentration (AC50) under setting [1] is 35.5 µM [rising, partial curve, poor fit].

Consider `O=C(N=Nc1c(O)n(C2OC(=O)c3ccccc32)c2ccccc12)c1ccc(O)cc1` (stereo not drawn), for which the concentration at half-maximal activity (AC50) under setting [1] was 1.26 µM [falling, full curve, poor fit].

`O=C(c1ccc2ccccc2c1)N1CCc2ccccc21`: the AC50 under setting [1] was 1 µM [falling, partial curve, poor fit].

Take `Cc1ccc(S(=O)(=O)N2CCCCC2)cc1NC(=S)NC(=O)c1ccco1`: under setting [1], the concentration at half-maximal activity (AC50) is 3.98 µM [falling, single point].

For `C/C(=N\N1C(=O)c2ccccc2NC1c1ccco1)c1ccccc1O` (stereo not drawn), the concentration at half-maximal activity (AC50) runs as follows: under setting [1], 35.5 µM [falling, single point]; under setting [2], 35.5 µM [falling, partial curve, poor fit].

In the case of `COc1c(C(=O)NNC(=O)c2ccccc2Cl)csc1Br`, under setting [1], the AC50 was 22.4 µM [falling, partial curve, poor fit].

As for `Cc1sc2ncn(C(C)C(=O)OC3CCCCC3)c(=O)c2c1C` (stereo not drawn), under setting [1], the concentration at half-maximal activity (AC50) was 0.00461 µM [falling, full curve, poor fit].
